Measured values as given in the supplement of paper PMC6078165.

Test system: HCC1143
Assay: relative JC-1 red fluorescence (viability) vs pre-drug, coculture with fibroblast (fraction); higher = more viable cancer cells
Protocol: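 JC-1 labelled TNBC cells cocultured 1:1 (1,500 cells each) with CellTrace Violet stained primary or stromal fibroblasts in 384-well plates in FluoroBrite medium, treated with one of 42 anticancer drugs at 0.1, 1, 10 or 100 uM. JC-1 red fluorescence (mitochondrial integrity in cancer cells only) was read by plate reader every 8 h for 72 h. Values are normalised to each well's pre-drug value. The stock of one drug was tenfold lower, so its dose labels may be too high.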

CCc1c2c(nc3ccc(OC(=O)N4CCC(N5CCCCC5)CC4)cc13)-c1cc3c(c(=O)n1C2)COC(=O)[C@]3(O)CC [Irinotecan]
relative JC-1 red fluorescence
Settings	8 h	16 h	24 h	32 h	40 h	48 h	56 h	64 h	72 h
0.1 µM, coculture fibroblast: C12385	0.856	0.773	0.715	0.666	0.601	0.556	0.518	0.479	0.461
0.1 µM, coculture fibroblast: H6013	0.7192	0.643	0.598	0.579	0.518	0.503	0.466	0.45	0.407
0.1 µM, coculture fibroblast: H6019	0.809	0.732	0.685	0.629	0.576	0.538	0.488	0.439	0.4
0.1 µM, coculture fibroblast: H6076	0.801	0.755	0.7374	0.764	0.653	0.666	0.643	0.635	0.66
0.1 µM, coculture fibroblast: H6231	0.803	0.789	0.72117	0.645	0.6124	0.581	0.53865	0.506	0.479
0.1 µM, coculture fibroblast: HADF	0.737	0.67	0.637	0.633	0.549	0.522	0.485	0.454	0.433
0.1 µM, coculture fibroblast: HCFa	0.748	0.679	0.645	0.615	0.544	0.517	0.473	0.44	0.412
0.1 µM, coculture fibroblast: HCPF	0.791	0.75	0.743	0.773	0.688	0.668	0.637	0.616	0.626
0.1 µM, coculture fibroblast: HHSteC	0.794	0.7339	0.683	0.641	0.582	0.556	0.516	0.489	0.443
0.1 µM, coculture fibroblast: HMF	0.7852	0.762	0.721	0.706	0.65	0.638	0.609	0.587	0.572
0.1 µM, coculture fibroblast: HPFa	0.889	0.815	0.7742	0.688	0.6378	0.60406	0.537	0.489	0.452
0.1 µM, coculture fibroblast: HUF	0.8482	0.787	0.738	0.66	0.622	0.61	0.561	0.541	0.514
0.1 µM, coculture fibroblast: Hs5	0.846	0.796	0.786	0.81017	0.718	0.703	0.683	0.663	0.675
0.1 µM, coculture fibroblast: Hs27A	0.711	0.61841	0.5894	0.594	0.4702	0.44767	0.39649	0.359	0.335
0.1 µM, coculture fibroblast: Hs343T	0.796	0.775	0.736	0.716	0.641	0.622	0.589	0.566	0.559
0.1 µM, coculture fibroblast: WS1	0.814	0.768	0.75	0.699	0.655	0.632	0.591	0.564	0.54
1 µM, coculture fibroblast: C12385	0.822	0.77	0.714	0.638	0.572	0.517	0.487	0.451	0.437
1 µM, coculture fibroblast: H6013	0.783	0.731	0.688	0.673	0.605	0.588	0.551	0.532	0.49
1 µM, coculture fibroblast: H6019	0.855	0.819	0.816	0.768	0.739	0.727	0.689	0.655	0.626
1 µM, coculture fibroblast: H6076	0.811	0.795	0.765	0.745	0.689	0.68	0.656	0.637	0.646
1 µM, coculture fibroblast: H6231	0.7863	0.767	0.706	0.607	0.584	0.548	0.51	0.476	0.46
1 µM, coculture fibroblast: HADF	0.788	0.754	0.72	0.711	0.629	0.608	0.571	0.545	0.503
1 µM, coculture fibroblast: HCFa	0.7781	0.691	0.631	0.602	0.52	0.484	0.44	0.399	0.379
1 µM, coculture fibroblast: HCPF	0.786	0.767	0.742	0.681	0.663	0.631	0.596	0.57	0.563
1 µM, coculture fibroblast: HHSteC	0.826	0.766	0.727	0.682	0.621	0.597	0.555	0.528	0.458
1 µM, coculture fibroblast: HMF	0.808	0.779	0.734	0.7065	0.6654	0.639	0.603	0.579	0.567
1 µM, coculture fibroblast: HPFa	0.897	0.833	0.79	0.673	0.611	0.56	0.484	0.435	0.3952
1 µM, coculture fibroblast: HUF	0.851	0.76	0.701	0.629	0.577	0.546	0.498	0.469	0.435
1 µM, coculture fibroblast: Hs5	0.8394	0.797	0.77	0.756	0.676	0.654	0.628	0.617	0.606
1 µM, coculture fibroblast: Hs27A	0.718	0.653	0.605	0.602	0.472	0.461	0.412	0.378	0.345
1 µM, coculture fibroblast: Hs343T	0.8021	0.795	0.723	0.64	0.603	0.5734	0.527	0.496	0.476
1 µM, coculture fibroblast: WS1	0.815	0.764	0.754	0.709	0.672	0.656	0.618	0.604	0.596
10 µM, coculture fibroblast: C12385	0.8555	0.788	0.743	0.692	0.614	0.573	0.53	0.482	0.454
10 µM, coculture fibroblast: H6013	0.758	0.713	0.681	0.6684	0.625	0.622	0.596	0.582	0.547
10 µM, coculture fibroblast: H6019	0.8224	0.769	0.734	0.669	0.632	0.626	0.59	0.569	0.54
10 µM, coculture fibroblast: H6076	0.85	0.808	0.788	0.787	0.721	0.725	0.701	0.688	0.7
10 µM, coculture fibroblast: H6231	0.856	0.8574	0.783	0.699	0.708	0.673	0.633	0.594	0.566
10 µM, coculture fibroblast: HADF	0.781	0.714	0.679	0.6783	0.583	0.559	0.526	0.496	0.4611
10 µM, coculture fibroblast: HCFa	0.813	0.742	0.701	0.673	0.5945	0.562	0.509	0.466	0.43
10 µM, coculture fibroblast: HCPF	0.8448	0.802	0.775	0.748	0.696	0.688	0.649	0.614	0.614
10 µM, coculture fibroblast: HHSteC	0.785	0.704	0.665	0.629	0.555	0.52114	0.4713	0.43479	0.3819
10 µM, coculture fibroblast: HMF	0.8294	0.8408	0.787	0.762	0.7163	0.69407	0.669	0.634	0.622
10 µM, coculture fibroblast: HPFa	0.9131	0.83	0.812	0.725	0.676	0.643	0.58	0.534	0.493
10 µM, coculture fibroblast: HUF	0.897	0.7991	0.7338	0.673	0.614	0.579	0.5154	0.48185	0.455
10 µM, coculture fibroblast: Hs5	0.901	0.862	0.866	0.9	0.83	0.825	0.824	0.824	0.809
10 µM, coculture fibroblast: Hs27A	0.798	0.73	0.719	0.745	0.641	0.632	0.605	0.588	0.5633
10 µM, coculture fibroblast: Hs343T	0.837	0.834	0.798	0.7591	0.714	0.699	0.664	0.622	0.599
10 µM, coculture fibroblast: WS1	0.821	0.762	0.724	0.654	0.593	0.562	0.516	0.479	0.449
100 µM, coculture fibroblast: C12385	0.885	0.8364	0.7623	0.683	0.66	0.65	0.653	0.64424	0.6454
100 µM, coculture fibroblast: H6013	0.8437	0.805	0.7669	0.7385	0.726	0.761	0.757	0.7692	0.6937
100 µM, coculture fibroblast: H6019	0.881	0.8229	0.7819	0.713	0.6724	0.6659	0.637	0.622	0.622
100 µM, coculture fibroblast: H6076	0.908	0.8854	0.895	0.853	0.785	0.773	0.759	0.754	0.761
100 µM, coculture fibroblast: H6231	0.902	0.843	0.878	0.71	0.668	0.616	0.579	0.54	0.53
100 µM, coculture fibroblast: HADF	0.8131	0.781	0.72	0.697	0.647	0.658	0.647	0.639	0.562
100 µM, coculture fibroblast: HCFa	0.87	0.801	0.714	0.694	0.64	0.636	0.623	0.621	0.584
100 µM, coculture fibroblast: HCPF	0.891	0.938	0.888	0.768	0.763	0.745	0.728	0.706	0.707
100 µM, coculture fibroblast: HHSteC	0.903	0.855	0.752	0.692	0.635	0.626	0.578	0.557	0.479
100 µM, coculture fibroblast: HMF	0.886	0.938	0.844	0.738	0.666	0.629	0.582	0.546	0.559
100 µM, coculture fibroblast: HPFa	0.9165	0.8402	0.7527	0.625	0.58	0.58	0.539	0.532	0.526
100 µM, coculture fibroblast: HUF	0.871	0.819	0.731	0.647	0.602	0.598	0.565	0.571	0.556
100 µM, coculture fibroblast: Hs5	0.9139	0.9	0.861	0.8541	0.77	0.753	0.734	0.726	0.7423
100 µM, coculture fibroblast: Hs27A	0.871	0.868	0.832	0.852	0.761	0.815	0.772	0.754	0.627
100 µM, coculture fibroblast: Hs343T	0.905	0.925	0.877	0.8	0.728	0.703	0.683	0.667	0.664
100 µM, coculture fibroblast: WS1	0.8531	0.77	0.653	0.57	0.518	0.504	0.478	0.475	0.468

Values are relative to the signal before dosing, not to a vehicle control; the signal also falls without drug.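 Fibroblast labels name human fibroblasts: mostly primary ones from tissues such as uterus (C12385, HUF), lung (H6013), bone (Hs27A), adrenal (HADF) and skin (WS1), plus mammary HMF and breast cancer-associated Hs343T. The cancer cells are basal-like or mesenchymal-like triple-negative breast cancer lines. The paper calls a changed response a hit when it shifts by more than 3x the replicate standard deviation. The tissue of the other fibroblasts is not given here.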
